Source: PubChem BioAssay AID652243 (Drosophila RNAi Screening Center, 2013)

Aim: 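Knock-downs that decrease or increase androgen receptor reporter signal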 (primary screen)
Cells: Drosophila S2R+ cells
Knock-down reagent: long dsRNA against Drosophila genes
Time to read-out: 72 h (48 h, then 24 h hormone)
Challenge: synthetic androgen R1881 at 10 nM for 24 h
Detection: 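Firefly light from an androgen-responsive reporter and Renilla control light per well, raw and unnormalised, for each of two replicates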
Reading the numbers: firefly reporter light: higher = more light from androgen-responsive reporter; Renilla control light: higher = more constitutive control signal (cell number, transfection)
Active means: 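Across duplicate plates, a knock-down whose log firefly/Renilla ratio shifted a set fold down or up from the GFP/LacZ control mean was a hit; the downward cut appears as both 1.5 and 3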
Calls: active = hit: reporter lowered or raised; inactive = no hit
In all, the deposit lists about 24,000 reagents; this is an unselected part of those that have a named target and a result. In the full data, 246 (1%) were called active. 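Plates not normalised; calls are printed but the firefly/Renilla ratio behind them is not deposited; fold cut for lowering reported inconsistently.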 Raw values vary from plate to plate and are shown uncorrected. Names joined by + are all predicted targets of the reagent. Reagent sequences are not shown. The record does not give: the amount of reagent.

target	dsRNA	firefly reporter light, replicate 1	firefly reporter light, replicate 2	Renilla control light, replicate 1	Renilla control light, replicate 2	outcome
CG10710 (GeneID 39525)	DRSC09784	1.55e5	1.33e5	1.73e6	1.75e6	inactive
CG8560 (GeneID 38830)	DRSC10994	1.37e6	7.76e5	1.70e6	8.26e5	inactive
CG8560 (GeneID 38830)	DRSC23854	9.03e5	8.95e5	1.13e6	1.05e6	inactive
CG32278 + CG14963	DRSC22203	5.74e5	5.20e5	2.02e6	1.99e6	inactive
Chsy (GeneID 32497)	DRSC20175	3.79e5	2.81e5	2.84e6	3.52e6	inactive
Chsy (GeneID 32497)	DRSC20176	7.62e5	7.45e5	2.04e6	1.22e6	inactive
CG11192 (GeneID 37309)	DRSC06057	85569	98409	9.58e5	1.24e6	inactive
CG11192 (GeneID 37309)	DRSC25902	3.42e5	5.66e5	8.99e5	9.63e5	inactive
Ppat-Dpck (GeneID 38647)	DRSC09744	53845	66671	9.15e5	1.16e6	inactive
CG6800 + Polr1H	DRSC36946					inactive
cue (GeneID 38174)	DRSC08248	1.84e6	1.81e6	2.26e6	1.48e6	inactive
CG10413 (GeneID 35111)	DRSC02052	8.85e5	1.26e6	1.19e6	1.54e6	inactive
Uhg3 (GeneID 3772557)	DRSC22963	9.43e5	1.02e6	2.76e6	1.80e6	inactive
CG6094 (GeneID 34446)	DRSC02927	5.13e5	5.60e5	1.65e6	1.36e6	inactive
CG6094 (GeneID 34446)	DRSC22705	9.59e5	6.88e5	1.67e6	1.33e6	inactive
CG6094 (GeneID 34446)	DRSC29084	3.44e5	3.80e5	1.15e6	1.21e6	inactive
CG12520 (GeneID 39466)	DRSC09892	1.22e5	1.01e5	1.24e6	1.46e6	inactive
CG15646 (GeneID 32501)	DRSC19682	3.81e5	2.94e5	2.27e6	2.26e6	inactive
CG9674 (GeneID 39878)	DRSC11088	54820	66679	3.42e5	3.26e5	inactive
CG9674 (GeneID 39878)	DRSC11089	1.59e5	1.81e5	1.22e6	1.15e6	inactive
Daao1 (GeneID 36128)	DRSC06131	2.46e5	1.41e5	1.34e6	7.20e5	inactive
CG3123 (GeneID 33478)	DRSC38928	8.34e5	8.81e5	2.00e6	1.83e6	inactive
CG14605 (GeneID 40867)	DRSC12549	84796	64969	1.38e6	1.95e6	inactive
CG14605 (GeneID 40867)	DRSC29195	4.98e5	7.19e5	1.49e6	1.52e6	inactive
CR40100 (GeneID 10178936)	DRSC38722	6.85e5	4.46e5	1.44e6	1.96e6	inactive
CG16719 (GeneID 39131)	DRSC10222	8.64e5	5.82e5	8.48e5	1.26e6	inactive
wls (GeneID 39259)	DRSC10605	1.17e6	9.29e5	6.93e5	1.09e6	inactive
wls (GeneID 39259)	DRSC29313	9.01e5	9.88e5	1.41e6	1.42e6	inactive
Polr2E (GeneID 36160)	DRSC06100	3.11e5	3.12e5	1.01e6	1.16e6	inactive
QIL1 (GeneID 39948)	DRSC10888	3.36e5	1.70e5	1.97e6	1.19e6	inactive
CRMP (GeneID 40675)	DRSC12073	1.17e5	55144	2.81e5	1.82e5	inactive
CRMP (GeneID 40675)	DRSC12345	57019	38173	3.51e5	4.35e5	inactive
CRMP (GeneID 40675)	DRSC27638	2.72e5	2.28e5	5.14e5	8.92e5	inactive
bou (GeneID 31644)	DRSC17924	2.42e5	3.70e5	2.73e6	2.86e6	inactive
D1 (GeneID 41095)	DRSC16638	35951	65657	4.07e5	6.16e5	inactive
CG10702 (GeneID 35181)	DRSC02097	8.31e5	8.57e5	1.17e6	1.26e6	inactive
CG10702 (GeneID 35181)	DRSC36848					inactive
CG10702 (GeneID 35181)	DRSC36849					inactive
CG11588 (GeneID 39347)	DRSC09145	1.30e5	1.38e5	2.84e5	2.66e5	inactive
CG11588 (GeneID 39347)	DRSC09846	3.06e5	2.56e5	2.67e6	2.25e6	inactive
Tsp39D (GeneID 35405)	DRSC03099	1.56e5	1.57e5	1.43e6	1.23e6	inactive
CG3306 (GeneID 39116)	DRSC10357	8.74e5	8.26e5	9.91e5	1.05e6	inactive
CG2278 (GeneID 31751)	DRSC18226	1.86e5	2.00e5	2.06e6	2.83e6	inactive
CG14050 (GeneID 31218)	DRSC18594	1.92e5	2.57e5	2.74e6	2.97e6	inactive
Cln3 (GeneID 39981)	DRSC10520	2.31e5	1.56e5	1.93e6	1.52e6	inactive
Cln3 (GeneID 39981)	DRSC27270	2.82e5	2.80e5	4.45e5	4.92e5	inactive
CG1622 (GeneID 32282)	DRSC19745	1.26e5	1.26e5	7.59e5	8.06e5	inactive
CG1622 (GeneID 32282)	DRSC28342	2.45e5	6.12e5	1.04e6	1.68e6	inactive
asRNA:CR43430 + hts	DRSC07629	72952	90034	7.67e5	1.17e6	inactive
nompA (GeneID 45587)	DRSC06329	2.49e5	1.59e5	1.95e6	1.01e6	inactive
CG7920 (GeneID 43562)	DRSC16346	1.70e5	1.22e5	1.30e6	1.28e6	inactive
CG7920 (GeneID 43562)	DRSC21594	5.50e5	5.74e5	1.01e6	1.10e6	inactive
CG30274 (GeneID 246521)	DRSC04171	2.89e5	2.52e5	1.50e6	1.55e6	inactive
CG30274 (GeneID 246521)	DRSC29207	7.26e5	6.37e5	1.47e6	1.30e6	inactive
CG14882 (GeneID 41994)	DRSC15006	33274	56742	3.29e5	2.73e5	inactive
CG14882 (GeneID 41994)	DRSC28318	3.71e5	8.51e5	1.15e6	1.81e6	inactive
Ate1 (GeneID 37288)	DRSC05925	9.12e5	6.56e5	1.41e6	6.85e5	inactive
Ate1 (GeneID 37288)	DRSC24725	7.81e5	6.80e5	9.61e5	7.12e5	inactive

7 of these entries, reformatted:
CG16719 (GeneID 39131) [DRSC10222]
- firefly reporter light, replicate 1: 8.64e5
- firefly reporter light, replicate 2: 5.82e5
- Renilla control light, replicate 1: 8.48e5
- Renilla control light, replicate 2: 1.26e6
- outcome: inactive

wls (GeneID 39259) [DRSC10605]
- firefly reporter light, replicate 1: 1.17e6
- firefly reporter light, replicate 2: 9.29e5
- Renilla control light, replicate 1: 6.93e5
- Renilla control light, replicate 2: 1.09e6
- outcome: inactive

wls (GeneID 39259) [DRSC29313]
- firefly reporter light, replicate 1: 9.01e5
- firefly reporter light, replicate 2: 9.88e5
- Renilla control light, replicate 1: 1.41e6
- Renilla control light, replicate 2: 1.42e6
- outcome: inactive

Polr2E (GeneID 36160) [DRSC06100]
- firefly reporter light, replicate 1: 3.11e5
- firefly reporter light, replicate 2: 3.12e5
- Renilla control light, replicate 1: 1.01e6
- Renilla control light, replicate 2: 1.16e6
- outcome: inactive

QIL1 (GeneID 39948) [DRSC10888]
- firefly reporter light, replicate 1: 3.36e5
- firefly reporter light, replicate 2: 1.70e5
- Renilla control light, replicate 1: 1.97e6
- Renilla control light, replicate 2: 1.19e6
- outcome: inactive

CRMP (GeneID 40675) [DRSC12073]
- firefly reporter light, replicate 1: 1.17e5
- firefly reporter light, replicate 2: 55144
- Renilla control light, replicate 1: 2.81e5
- Renilla control light, replicate 2: 1.82e5
- outcome: inactive

CRMP (GeneID 40675) [DRSC12345]
- firefly reporter light, replicate 1: 57019
- firefly reporter light, replicate 2: 38173
- Renilla control light, replicate 1: 3.51e5
- Renilla control light, replicate 2: 4.35e5
- outcome: inactive
